This is one part of the list. Single values are uncertain, as repeats are few or missing.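 Imaging used 1,536-well plates; nuclei positive for cleaved PARP by antibody were divided by total DNA-stained nuclei to yield the apoptosis fraction. Doses for screening kept most cells viable, and cell lines differ markedly in resting and induced cleaved-PARP levels.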
Columns and labels:
Experiment in all cases: cleaved PARP positive nuclei fraction relative to DMSO control; melanoma cells; higher = more apoptosis
Conditions in all cases: library dose: low library concentration; 72 h
COLO792 = test system: COLO792
COLO800 = test system: COLO800
COLO829 = test system: COLO829
G361 = test system: G361
IPC-298 = test system: IPC-298
IST-MEL1 = test system: IST-MEL1
LB2518-MEL = test system: LB2518-MEL
LOXIMVI = test system: LOXIMVI
MEL-HO = test system: MEL-HO
MZ2-MEL = test system: MZ2-MEL
MeWo = test system: MeWo
RPMI7951 = test system: RPMI7951
RVH-421 = test system: RVH-421
SkMel28 = test system: SkMel28
SkMel2 = test system: SkMel2
SkMel30 = test system: SkMel30
SkMel5 = test system: SkMel5
UACC257 = test system: UACC257
UACC62 = test system: UACC62

Structure (SMILES)	cleaved PARP positive nuclei fraction (COLO792) [%]	cleaved PARP positive nuclei fraction (COLO800) [%]	cleaved PARP positive nuclei fraction (COLO829) [%]	cleaved PARP positive nuclei fraction (G361) [%]	cleaved PARP positive nuclei fraction (IPC-298) [%]	cleaved PARP positive nuclei fraction (IST-MEL1) [%]	cleaved PARP positive nuclei fraction (LB2518-MEL) [%]	cleaved PARP positive nuclei fraction (LOXIMVI) [%]	cleaved PARP positive nuclei fraction (MEL-HO) [%]	cleaved PARP positive nuclei fraction (MZ2-MEL) [%]	cleaved PARP positive nuclei fraction (MeWo) [%]	cleaved PARP positive nuclei fraction (RPMI7951) [%]	cleaved PARP positive nuclei fraction (RVH-421) [%]	cleaved PARP positive nuclei fraction (SkMel28) [%]	cleaved PARP positive nuclei fraction (SkMel2) [%]	cleaved PARP positive nuclei fraction (SkMel30) [%]	cleaved PARP positive nuclei fraction (SkMel5) [%]	cleaved PARP positive nuclei fraction (UACC257) [%]	cleaved PARP positive nuclei fraction (UACC62) [%]
CCCCCCCCCCCCCCCCCCOP(=O)([O-])OC1CC[N+](C)(C)CC1 [Perifosine] + O=C(Nc1cccc(Cl)c1)Nc1ncc(CCNc2ncnc3ccsc23)s1 [SNS314] (first compound 0.4 µM, partner dose 0.0008 µM)	83.1	81.3	67.6	75.8	87.9	25.1	54.9	24.7	209	82.1	33.6	81.1	50.4	63.7	95.3	71.2	73.4	39.9	53.7
O=c1[nH]nc(Sc2ncc([N+](=O)[O-])s2)n1-c1ccc2c(c1)OCCO2 + CN(C)S(=O)(=O)c1ccc2c(c1)/C(=C/c1cc3c([nH]1)CCCC3)C(=O)N2 [SU6656] (first compound 0.2 µM, partner dose 0.4 µM)	107	163	119	134	90.1	110	49.1	17.6	185	105	68.6	93.7	63.9	93.3	46.8	62.1	89.2	99.5	145
Cc1cn(-c2cc(NC(=O)c3ccc(C)c(Nc4nccc(-c5cccnc5)n4)c3)cc(C(F)(F)F)c2)cn1 [nilotinib] + CO[C@@H]1[C@H](N(C)C(=O)c2ccccc2)C[C@H]2O[C@]1(C)n1c3ccccc3c3c4c(c5c6ccccc6n2c5c31)C(=O)NC4 [Midostaurin] (first compound 0.2 µM, partner dose 0.08 µM)	86.5	120	101	113	98.5	219	101	127	31.7	36.9	134	72.4	125	75.8	310	89	301	73.9	41.9
CCCCCCCCCCCCCCCCCCOP(=O)([O-])OC1CC[N+](C)(C)CC1 [Perifosine] + CN(C)S(=O)(=O)c1ccc2c(c1)/C(=C/c1cc3c([nH]1)CCCC3)C(=O)N2 [SU6656] (first compound 0.4 µM, partner dose 0.4 µM)	285	176	37.2	135	91.1	163	85	65.4	77.1	131	158	110	35	165	95.1	72.8	41.8	82.7	122
O=C(/C=C/c1cccnc1)NCCCCC1CCN(C(=O)c2ccccc2)CC1 + CN(C)S(=O)(=O)c1ccc2c(c1)/C(=C/c1cc3c([nH]1)CCCC3)C(=O)N2 [SU6656] (first compound 0.01 µM, partner dose 0.4 µM)	547	165	287	4410	191	52.1	134	30	104	603	45.5	92.9	168	47.7	795	61.2	155	38.6	180
N#CC[C@H](C1CCCC1)n1cc(-c2ncnc3[nH]ccc23)cn1 [ruxolitinib] + Cn1cncc1[C@@](N)(c1ccc(Cl)cc1)c1ccc2c(c1)c(-c1cccc(Cl)c1)cc(=O)n2C [tipifarnib] (first compound 1 µM, partner dose 0.01 µM)	118	43.3	85.1	90.5	88.2	42.5	209	168	223	178	121	107	122	158	129	65.1	196	68.9	123
CC[C@]1(O)C[C@H]2CN(CCc3c([nH]c4ccccc34)[C@@](C(=O)OC)(c3cc4c(cc3OC)N(C=O)[C@H]3[C@@](O)(C(=O)OC)[C@H](OC(C)=O)[C@]5(CC)C=CCN6CC[C@]43[C@@H]65)C2)C1 [vincristine] + C=CCn1c(=O)c2cnc(Nc3ccc(N4CCN(C)CC4)cc3)nc2n1-c1cccc(C(C)(C)O)n1 [MK1775] (first compound 0.0001 µM, partner dose 0.02 µM)	82.9	75.2	133	66.6	101	51.9	78.9	89.6	145	222	134	196	118	211	61.1	102	65.3	279	361
O=C(Nc1cc(C(F)(F)F)cc(C(F)(F)F)c1)c1cc(Cl)ccc1O + O=C(Nc1cccc(Cl)c1)Nc1ncc(CCNc2ncnc3ccsc23)s1 [SNS314] (first compound 0.016 µM, partner dose 0.0008 µM)	141	52.5	53.6	93.1	158	169	202	105	53.4	192	65.4	106	94.3	42.2	67.5	64.1	164	166	90

— the supplement of paper PMC4604168 (melanoma cell lines)
